# PubChem BioAssay AID504764, Drosophila RNAi Screening Center, 2011
# Purpose: 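Knock-downs that raise or lower a Notch target reporter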 (primary screen)
# Cell system: Drosophila Kc167 cells
# Knock-down reagent: long dsRNA against Drosophila genes
# Time to read-out: about 5 days (4 days dsRNA, then 24 h after transfection)
# Treatment: transfection of constitutively active membrane-tethered Notch lacking the extracellular domain, read 24 h later
# Detection: 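Light from a Notch-responsive E(spl)m3 luciferase reporter under active Notch, with control-promoter and no-Notch reporter wells to normalise; raw counts from paired wells a and b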
# Reading the numbers: induced reporter light, run 1, well a and induced reporter light, run 1, well b: higher = more light from the Notch target reporter with active Notch; control promoter light, run 1, well a and control promoter light, run 1, well b: higher = more light from the viral control promoter (cell number, transfection, viability); uninduced reporter light, run 1, well a: higher = more light from the Notch target reporter without active Notch
# Hit rule: 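Wells with low control signal or poorly matching duplicates excluded; duplicates averaged; per source plate, z beyond ±2 for induced/control log2 ratio or beyond ±1.8 for induced/uninduced marks a hit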
# Calls: active = modifier hit (raised or lowered Notch signal); inactive = not a hit
# In all, the deposit lists about 22,000 reagents; this is an unselected part of those with a known target gene and a result. Of all reagents, 403 (1.9%) were called active. 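Unnormalised raw counts per well; ratio z-scores behind the hit calls and whether each hit raises or lowers signal are not deposited.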 Unmarked entries are inactive. A plus sign joins genes that one reagent is predicted to hit. Not stated in the record: the amount of reagent.
"induced reporter light, run 1, well a","induced reporter light, run 1, well b","control promoter light, run 1, well a","control promoter light, run 1, well b","uninduced reporter light, run 1, well a",target gene,DRSC id
54355,65280,83865,84200,7965,CG8192,DRSC07101
42415,38245,48790,46220,2095,tey,DRSC11042
17965,17400,20330,14430,1050,CG4570,DRSC15602
58120,68970,65345,71110,5570,CG32719,DRSC17525
1.26e5,70870,64890,1.35e5,4295,Tep5Psi,DRSC02183
35095,27100,34980,66585,1940,Tep5Psi,DRSC02184
1.96e5,2.38e5,2.45e5,2.73e5,20385,Plc21C,DRSC00773
2.11e5,1.68e5,3.85e5,3.39e5,12655,Pde11,DRSC02028
40250,23750,41540,43155,4005,Pde11,DRSC02460
71860,79700,98525,92580,7025,ND-B15,DRSC06199
2.07e5,1.75e5,1.98e5,2.32e5,14850,CG6985,DRSC16164
1.08e5,1.17e5,68820,66455,9395,CG42374 + Mettl5,DRSC11085
9860,9645,9970,10795,950,Rpn7,DRSC16841
57840,59575,86810,91430,2935,Tom7,DRSC05135
1.58e5,1.86e5,2.30e5,2.04e5,14670,Tom7,DRSC07113
1.06e5,85140,1.57e5,1.94e5,7360,CG4025,DRSC18523
1.58e5,1.89e5,1.56e5,1.68e5,15780,cyst,DRSC02023
1.92e5,1.76e5,1.45e5,1.72e5,16532,CG17712,DRSC00266
96420,85530,1.51e5,1.81e5,8055,Vps50,DRSC06910
1.92e5,1.90e5,2.47e5,2.87e5,15885,Gycalpha99B,DRSC16690
86850,1.25e5,1.02e5,1.22e5,4815,ATP6AP2,DRSC16420
1.90e5,1.68e5,1.93e5,1.71e5,14910,Pink1,DRSC18361
84865,78475,1.32e5,1.22e5,8605,CG33673,DRSC00084
65025,1.09e5,90095,66505,7795,e(y)2b,DRSC12556
1.24e5,1.13e5,79195,45795,9315,Atat,DRSC10392
1.14e5,82555,71605,64640,6175,CG2616,DRSC15440
1.44e5,1.35e5,1.23e5,95760,10710,CG12377 (retired record),DRSC11671
1.51e5,1.12e5,1.09e5,96220,11035,CG12377 (retired record),DRSC11672
1.02e5,85360,1.07e5,1.29e5,9695,Oxp,DRSC06712
56725,69235,86420,75685,3940,CG30378,DRSC05071
4.17e5,3.05e5,3.32e5,3.37e5,27115,Eato,DRSC01891
1.56e5,1.80e5,2.01e5,2.24e5,14695,Eato,DRSC03061
1.59e5,1.52e5,1.08e5,82785,12950,CG18178,DRSC10302
1.96e5,1.77e5,1.44e5,1.59e5,12505,Trap1,DRSC05019

Just “control promoter light, run 1, well a”, for 3 of the entries above:
e(y)2b [DRSC12556] = 90095
Atat [DRSC10392] = 79195
CG2616 [DRSC15440] = 71605
